Assay results taken from patent US10864168B2, “Bioactive delivery vehicles” (The Regents of the University of California, priority 2014, dated 2020).
The name of at least one read-out is uncertain.

Experiment: Storage stability of encapsulated retinol at room temperature, exposure to atmospheric oxygen
Assay type: physicochemical
Text: FIG. 10 illustrates stability of retinol encapsulated yeast cells as compared to retinol in emulsion and nanoparticles at room temperature. Stability of all-trans retinol encapsulated in casein stabilized emulsion, zein nanoparticles and yeast cells. The percent recovery of retinol in model systems after exposure to atmospheric oxygen is shown. Yeast cells provided the most stability to retinol, nearly 100% up to 5 days, while zein and casein systems have <10% after 4 days.
Retinol was selected as a model bioactive as it is highly susceptible to oxidative degradation at room temperature.

Compound: CC1=C(/C=C/C(C)=C/C=C/C(C)=C/CO)C(C)(C)CCC1 [Retinol, retinol]
- percent recovery of retinol after exposure to atmospheric oxygen (encapsulated in casein stabilized emulsion, after 4 days): < 10%
- percent recovery of retinol after exposure to atmospheric oxygen (encapsulated in yeast cells, up to 5 days): ~100%
- percent recovery of retinol after exposure to atmospheric oxygen (encapsulated in zein nanoparticles, after 4 days): < 10%
